The values below are quoted from earlier work in patent US6479487B1, “6, 9-disubstituted 2-[trans-(4-aminocyclohexyl)amino] purines” (Aventis Pharmaceuticals Inc., priority 1998, dated 2002).

This data set has as its system 60 human tumour cell lines. Conditions: read-out: average IC50, proliferation of 60 human tumour cell lines; NCI screen, nine tumour types; Meijer et al.; cited from earlier work.

For `CCC(CO)Nc1nc(NCc2ccccc2)c2ncn(C(C)C)c2n1` (stereo not shown) [roscovitine, 2-(1-ethyl-2-hydroxyethylamino)-6-benzylamino-9-isopropylpurine], the IC50 is 16 µM.
